In article PMC8991007, “Benzylic Dehydroxylation of Echinocandin Antifungal Drugs Restores Efficacy against Resistance Conferred by Mutated Glucan Synthase” (Journal of the American Chemical Society, 2022):

How the values were obtained:
Type in all cases: cell-based
Hs 578T = experiment: Phenotypic viability assay of GFP reporter cell line; conditions: Homo sapiens; Hs 578T expressing GFP, 24 h, mean ± SD
Experimental: (§1) In this analysis, we used HCT-116, a human colorectal carcinoma cell line; UACC-62, a human melanoma cell line; Hs 578T, a human mammary gland carcinoma cell line, and SF-295, a human glioblastoma cell line. […] The highest concentration of the echinocandins used for the cell viability tests was determined based on the reported maximal plasma concentrations (Cmax) of ANF and RZF measured in humans. A Cmax of approximately 7 μM was measured during a pharmacokinetic study of ANF in patients with candidemia or invasive candidiasis who were treated with a 200 mg loading dose on day 1, followed by a daily 100 mg maintenance dose.[64]
(§2) Human cell lines HCT-116, UACC-62, Hs 578T, and SF-295 were obtained from the Life Sciences Core Facilities of the Nancy & Stephen Grand Israel National Center for Personalized Medicine. […]
(§3) Assay-ready plates were designed using in-house software (CHEMPION, INCPM software development team) and prepared in 384-well Greiner plates (cat. no. 781091) using an Echo 555 Acoustic Liquid Handler (Labcyte). […] Prior to the experiment, cells were trypsinized and counted using a Countess cytometer. […] Images were then analyzed using MetaExpress with a custom protocol (Custom Module Editor), and data were annotated and normalized using Genedata Screener software. […]

[1] = tested on: HCT-116, UACC-62, Hs 578T, SF-295; experiment: cells; conditions: Homo sapiens, 24 h, read-out: IC50 values, range over the four cell lines
Experimental: as §1, §2, §3

SF-295 = experiment: cells; conditions: Homo sapiens, SF-295, 24 h, read-out: IC50 (cell viability)
Experimental: as §1, §2, §3

For `CN[C@@H]1C[C@H]2O[C@@](C)([C@@H]1OC)n1c3ccccc3c3c4c(c5c6ccccc6n2c5c31)C(=O)NC4` [Staurosporine], the IC50 (Hs 578T) was 800 ± 580 nM, the IC50 [1] was 340 to 800 nM and the IC50 (SF-295) was 340 ± 250 nM.
